Here are results for 4 molecules from publication PMC4480970.

Sequences of proteins named here, by UniProt entry; tags and fusion partners are left off.
UniProt O09106: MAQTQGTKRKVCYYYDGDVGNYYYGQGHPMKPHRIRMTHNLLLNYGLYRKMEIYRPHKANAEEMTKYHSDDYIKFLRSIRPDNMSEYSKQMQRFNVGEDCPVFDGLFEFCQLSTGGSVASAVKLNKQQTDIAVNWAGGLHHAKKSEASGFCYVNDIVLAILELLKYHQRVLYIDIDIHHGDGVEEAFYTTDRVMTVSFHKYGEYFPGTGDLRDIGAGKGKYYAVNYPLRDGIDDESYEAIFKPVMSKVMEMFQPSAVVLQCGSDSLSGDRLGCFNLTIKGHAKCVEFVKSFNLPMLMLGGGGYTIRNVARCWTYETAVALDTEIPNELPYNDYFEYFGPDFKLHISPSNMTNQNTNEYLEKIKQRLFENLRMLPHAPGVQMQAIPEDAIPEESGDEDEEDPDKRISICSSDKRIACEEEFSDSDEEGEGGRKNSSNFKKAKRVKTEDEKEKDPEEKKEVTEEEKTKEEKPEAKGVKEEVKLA
UniProt P70288: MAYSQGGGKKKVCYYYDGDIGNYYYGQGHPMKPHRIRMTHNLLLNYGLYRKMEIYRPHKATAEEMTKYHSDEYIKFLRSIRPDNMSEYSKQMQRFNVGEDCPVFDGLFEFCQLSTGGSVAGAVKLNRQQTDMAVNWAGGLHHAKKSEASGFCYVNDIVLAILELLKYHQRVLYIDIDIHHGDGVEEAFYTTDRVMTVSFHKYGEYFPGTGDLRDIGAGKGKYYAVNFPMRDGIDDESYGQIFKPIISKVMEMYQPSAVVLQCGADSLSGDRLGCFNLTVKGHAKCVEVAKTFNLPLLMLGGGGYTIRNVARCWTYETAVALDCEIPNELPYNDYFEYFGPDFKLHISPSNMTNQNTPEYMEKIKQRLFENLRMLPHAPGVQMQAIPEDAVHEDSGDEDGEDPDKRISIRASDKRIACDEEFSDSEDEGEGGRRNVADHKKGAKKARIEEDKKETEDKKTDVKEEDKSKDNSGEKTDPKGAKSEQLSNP

These are yes or no findings as the source states them, for the method shown. Binding seen in cells or lysates may run through a third protein. Some binding calls cover weakened binding; strength is not graded here. For part of these data: Tags and fused reporters may be left off the sequences shown.

For one assay, the target named is FLAG-tagged HDAC1 (UniProt O09106). Nature of the assay: co-IP; HA-Foxp3 or its deletion mutants and FLAG-HDAC1, 2 or 3 co-transfected in HEK293T; lysis in 0.4 M NaCl, 1% Triton X-100, diluted with hypotonic buffer; immunoprecipitation with anti-FLAG M2 agarose, 2 h at 4°C, washes with 0.5 M NaCl; blot with anti-HA.
The next assay addresses FLAG-tagged HDAC2 (UniProt P70288). The assay is described as above.
The next assay concerns the target T1, FLAG-tagged HDAC3 (UniProt O88895).
T1 sequence: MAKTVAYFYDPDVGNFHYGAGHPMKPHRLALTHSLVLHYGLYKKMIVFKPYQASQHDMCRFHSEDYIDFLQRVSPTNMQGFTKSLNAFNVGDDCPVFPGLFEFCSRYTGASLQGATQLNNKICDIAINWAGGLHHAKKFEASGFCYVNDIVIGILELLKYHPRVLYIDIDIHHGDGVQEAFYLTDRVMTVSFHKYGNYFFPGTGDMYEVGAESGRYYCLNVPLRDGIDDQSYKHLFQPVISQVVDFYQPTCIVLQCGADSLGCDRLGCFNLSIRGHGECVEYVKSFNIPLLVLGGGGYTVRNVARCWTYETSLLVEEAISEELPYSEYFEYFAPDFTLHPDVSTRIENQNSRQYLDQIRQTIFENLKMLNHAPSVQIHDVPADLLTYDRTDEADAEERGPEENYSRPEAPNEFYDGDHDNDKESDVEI
The description is as above.

The target of assay [1] is HA-HDAC2 (in primary T cells) (UniProt P70288). Put plainly: co-IP; primary CD4+ T cells co-transduced with retrovirus carrying FLAG-Foxp3 and HA-HDAC1 or 2 (IP with anti-HA affinity gel), or HA-Foxp3 and FLAG-HDAC3 (IP with anti-FLAG M2 agarose); blots with anti-HA or anti-FLAG.
For assay [2], the target named is HA-HDAC1 (in primary T cells) (UniProt O09106). Described as above.
Another assay has as its target T2, GST-tagged HDAC3 (UniProt O88895).
T2 sequence: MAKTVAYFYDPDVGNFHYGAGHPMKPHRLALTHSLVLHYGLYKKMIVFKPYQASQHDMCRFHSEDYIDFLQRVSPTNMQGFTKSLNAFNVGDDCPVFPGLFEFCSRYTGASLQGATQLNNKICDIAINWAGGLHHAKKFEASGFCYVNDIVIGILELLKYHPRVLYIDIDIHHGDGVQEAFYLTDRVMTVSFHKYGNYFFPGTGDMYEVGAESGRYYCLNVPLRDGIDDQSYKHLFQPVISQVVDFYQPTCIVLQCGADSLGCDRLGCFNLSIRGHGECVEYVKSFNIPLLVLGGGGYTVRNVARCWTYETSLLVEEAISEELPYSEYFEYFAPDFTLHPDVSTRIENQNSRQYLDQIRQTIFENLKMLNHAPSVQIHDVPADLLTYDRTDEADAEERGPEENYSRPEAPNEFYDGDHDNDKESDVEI
Nature of the assay: pull-down; 5 μl in vitro translated Foxp3 incubated with 10 μg affinity purified GST-HDAC in BC100 buffer (20 mM Tris pH 7.9, 100 mM NaCl, 10% glycerol, 0.2 mM EDTA, 0.1% Triton X-100) overnight at 4°C; pulled down with glutathione sepharose 4B; blot with anti-Foxp3 and anti-GST; only the target purified.

The next assay addresses GST-tagged HDAC2 (UniProt P70288). The description is as above.
A further assay has as its target GST-tagged HDAC1 (UniProt O09106). Described as above.
In assay [3] the target is T3, FLAG-HDAC3 (in primary T cells) (UniProt O88895).
T3 sequence: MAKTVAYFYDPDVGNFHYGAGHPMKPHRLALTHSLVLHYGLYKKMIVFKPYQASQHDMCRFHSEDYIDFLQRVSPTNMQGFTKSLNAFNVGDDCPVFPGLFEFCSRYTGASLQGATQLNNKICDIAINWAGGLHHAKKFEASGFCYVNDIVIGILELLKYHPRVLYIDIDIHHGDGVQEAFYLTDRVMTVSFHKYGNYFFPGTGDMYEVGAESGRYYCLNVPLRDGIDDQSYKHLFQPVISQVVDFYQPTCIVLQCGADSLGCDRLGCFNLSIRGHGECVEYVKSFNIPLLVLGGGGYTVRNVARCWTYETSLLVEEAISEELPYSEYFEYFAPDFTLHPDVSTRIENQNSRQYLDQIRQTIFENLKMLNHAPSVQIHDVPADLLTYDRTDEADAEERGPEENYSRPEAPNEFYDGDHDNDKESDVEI
Put plainly: co-IP; primary CD4+ T cells co-transduced with retrovirus carrying FLAG-Foxp3 and HA-HDAC1 or 2 (IP with anti-HA affinity gel), or HA-Foxp3 and FLAG-HDAC3 (IP with anti-FLAG M2 agarose); blots with anti-HA or anti-FLAG.

B1: HA-tagged Foxp3 (wild type) (protein, UniProt Q99JB6 1-429)
chain: MPNPRPAKPMAPSLALGPSPGVLPSWKTAPKGSELLGTRGSGGPFQGRDLRSGAHTSSSLNPLPPSQLQLPTVPLVMVAPSGARLGPSPHLQALLQDRPHFMHQLSTVDAHAQTPVLQVRPLDNPAMISLPPPSAATGVFSLKARPGLPPGINVASLEWVSREPALLCTFPRSGTPRKDSNLLAAPQGSYPLLANGVCKWPGCEKVFEEPEEFLKHCQADHLLDEKGKAQCLLQREVVQSLEQQLELEKEKLGAMQAHLAGKMALAKAPSVASMDKSSCCIVATSTQGSVLPAWSAPREAPDGGLFAVRRHLWGSHGNSSFPEFFHNMDYFKYHNMRPPFTYATLIRWAILEAPERQRTLNEIYHWFTRMFAYFRNHPATWKNAIRHNLSLHKCFVRVESEKGAVWTVDEFEFRKKRSQRPNKCSNPCP
With B1, the binding result with FLAG-tagged HDAC1, with FLAG-tagged HDAC2 and in the assay with FLAG-tagged HDAC3 was “binds” in each case.

B2: FLAG-Foxp3 (in primary T cells) (protein, UniProt Q99JB6 1-429)
chain: MPNPRPAKPMAPSLALGPSPGVLPSWKTAPKGSELLGTRGSGGPFQGRDLRSGAHTSSSLNPLPPSQLQLPTVPLVMVAPSGARLGPSPHLQALLQDRPHFMHQLSTVDAHAQTPVLQVRPLDNPAMISLPPPSAATGVFSLKARPGLPPGINVASLEWVSREPALLCTFPRSGTPRKDSNLLAAPQGSYPLLANGVCKWPGCEKVFEEPEEFLKHCQADHLLDEKGKAQCLLQREVVQSLEQQLELEKEKLGAMQAHLAGKMALAKAPSVASMDKSSCCIVATSTQGSVLPAWSAPREAPDGGLFAVRRHLWGSHGNSSFPEFFHNMDYFKYHNMRPPFTYATLIRWAILEAPERQRTLNEIYHWFTRMFAYFRNHPATWKNAIRHNLSLHKCFVRVESEKGAVWTVDEFEFRKKRSQRPNKCSNPCP
In the case of B2, the binding result in assay [1] and in assay [2] was “binds” in each case.

B3: In vitro translated Foxp3 (protein, UniProt Q99JB6 1-429)
chain: MPNPRPAKPMAPSLALGPSPGVLPSWKTAPKGSELLGTRGSGGPFQGRDLRSGAHTSSSLNPLPPSQLQLPTVPLVMVAPSGARLGPSPHLQALLQDRPHFMHQLSTVDAHAQTPVLQVRPLDNPAMISLPPPSAATGVFSLKARPGLPPGINVASLEWVSREPALLCTFPRSGTPRKDSNLLAAPQGSYPLLANGVCKWPGCEKVFEEPEEFLKHCQADHLLDEKGKAQCLLQREVVQSLEQQLELEKEKLGAMQAHLAGKMALAKAPSVASMDKSSCCIVATSTQGSVLPAWSAPREAPDGGLFAVRRHLWGSHGNSSFPEFFHNMDYFKYHNMRPPFTYATLIRWAILEAPERQRTLNEIYHWFTRMFAYFRNHPATWKNAIRHNLSLHKCFVRVESEKGAVWTVDEFEFRKKRSQRPNKCSNPCP
On to B3, for which the binding entry in the assay with GST-tagged HDAC3, with GST-tagged HDAC2 and with GST-tagged HDAC1 was “binds” in each case.

B4: HA-Foxp3 (in primary T cells) (protein, UniProt Q99JB6 1-429)
chain: MPNPRPAKPMAPSLALGPSPGVLPSWKTAPKGSELLGTRGSGGPFQGRDLRSGAHTSSSLNPLPPSQLQLPTVPLVMVAPSGARLGPSPHLQALLQDRPHFMHQLSTVDAHAQTPVLQVRPLDNPAMISLPPPSAATGVFSLKARPGLPPGINVASLEWVSREPALLCTFPRSGTPRKDSNLLAAPQGSYPLLANGVCKWPGCEKVFEEPEEFLKHCQADHLLDEKGKAQCLLQREVVQSLEQQLELEKEKLGAMQAHLAGKMALAKAPSVASMDKSSCCIVATSTQGSVLPAWSAPREAPDGGLFAVRRHLWGSHGNSSFPEFFHNMDYFKYHNMRPPFTYATLIRWAILEAPERQRTLNEIYHWFTRMFAYFRNHPATWKNAIRHNLSLHKCFVRVESEKGAVWTVDEFEFRKKRSQRPNKCSNPCP
B4: the binding result in [3] is “binds”.
